Here are results for 1 molecule from paper PMC6926483.

In this assay the target is T1, HA-GluD1 (glutamate receptor delta-1, wild type) (mouse), Q61627.
T1 chain: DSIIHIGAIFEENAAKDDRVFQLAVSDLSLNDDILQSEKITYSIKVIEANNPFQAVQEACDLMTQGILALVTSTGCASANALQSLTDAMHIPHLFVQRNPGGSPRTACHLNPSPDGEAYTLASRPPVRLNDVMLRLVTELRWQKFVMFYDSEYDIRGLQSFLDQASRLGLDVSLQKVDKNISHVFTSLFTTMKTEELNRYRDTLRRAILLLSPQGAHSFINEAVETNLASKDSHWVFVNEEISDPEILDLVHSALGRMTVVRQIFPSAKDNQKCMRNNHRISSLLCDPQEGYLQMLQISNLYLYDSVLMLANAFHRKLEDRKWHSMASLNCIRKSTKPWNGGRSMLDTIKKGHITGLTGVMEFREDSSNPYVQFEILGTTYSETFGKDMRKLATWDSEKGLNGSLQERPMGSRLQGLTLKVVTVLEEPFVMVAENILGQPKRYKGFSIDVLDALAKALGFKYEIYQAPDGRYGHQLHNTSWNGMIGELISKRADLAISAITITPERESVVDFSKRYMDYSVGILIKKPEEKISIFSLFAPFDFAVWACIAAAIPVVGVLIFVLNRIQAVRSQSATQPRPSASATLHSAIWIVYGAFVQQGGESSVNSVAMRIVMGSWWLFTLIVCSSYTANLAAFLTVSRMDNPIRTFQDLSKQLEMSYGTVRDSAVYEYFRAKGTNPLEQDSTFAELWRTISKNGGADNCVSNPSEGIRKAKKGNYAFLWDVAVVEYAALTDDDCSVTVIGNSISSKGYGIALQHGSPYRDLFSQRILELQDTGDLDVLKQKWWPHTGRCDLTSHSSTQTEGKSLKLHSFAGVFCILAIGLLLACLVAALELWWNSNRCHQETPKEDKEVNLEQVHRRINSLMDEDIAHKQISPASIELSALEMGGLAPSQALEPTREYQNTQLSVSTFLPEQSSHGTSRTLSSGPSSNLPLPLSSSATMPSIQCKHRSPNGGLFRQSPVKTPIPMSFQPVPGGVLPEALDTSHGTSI
The assay can be described thus: co-IP; transfected HEK cells; 1 mg total protein in NP-40 buffer (1% Igepal, 50 mM Tris pH 7.4, 150 mM NaCl, 2 mM EDTA); overnight at 4°C with mouse anti-HA or mouse anti-Myc antibody, mouse IgG as negative control; protein G-agarose; washes with 200 mM NaCl; western blot. Conditions: remark: other sources report otherwise. Background: Immunoblotting shows a protein as a band on a membrane.

These are yes or no findings as the source states them, for the method shown. In cells and extracts the contact can be indirect. Some results given as binding are weak or reduced against the parent protein; the word gives no strength. Tags and fused reporters may be left off the sequences shown.

B1: Myc-Cbln4 (cerebellin-4), Q8BME9 25-198 (ligand)
chain: QNDTEPIVLEGKCLVVCDSNPATDSKGSSSSPLGISVRAANSKVAFSAVRSTNHEPSEMSNKTRIIYFDQILVNVGNFFTLESVFVAPRKGIYSFSFHVIKVYQSQTIQVNLMLNGKPVISAFAGDKDVTREAATNGVLLYLDKEDKVYLKLEKGNLLGGWQYSTFSGFLVFPL
Take B1: the binding entry is recorded as “binds”.
